ChEMBL document CHEMBL1125846, “Reevaluating equilibrium and kinetic binding parameters for lipophilic drugs based on a structural model for drug interaction with biological membranes” (J Med Chem, 1991)

Conditions: octanol/water

COC(=O)C1=C(C)NC(C)=C(C(=O)OC)C1c1ccccc1[N+](=O)[O-] [NIFEDIPINE]
Partition coefficient: 3000
